# Percent effect of library compounds

Amino acid sequences for entries named in this document (tags omitted). Residues count along the entry.
UniProt A4I591, 1-473: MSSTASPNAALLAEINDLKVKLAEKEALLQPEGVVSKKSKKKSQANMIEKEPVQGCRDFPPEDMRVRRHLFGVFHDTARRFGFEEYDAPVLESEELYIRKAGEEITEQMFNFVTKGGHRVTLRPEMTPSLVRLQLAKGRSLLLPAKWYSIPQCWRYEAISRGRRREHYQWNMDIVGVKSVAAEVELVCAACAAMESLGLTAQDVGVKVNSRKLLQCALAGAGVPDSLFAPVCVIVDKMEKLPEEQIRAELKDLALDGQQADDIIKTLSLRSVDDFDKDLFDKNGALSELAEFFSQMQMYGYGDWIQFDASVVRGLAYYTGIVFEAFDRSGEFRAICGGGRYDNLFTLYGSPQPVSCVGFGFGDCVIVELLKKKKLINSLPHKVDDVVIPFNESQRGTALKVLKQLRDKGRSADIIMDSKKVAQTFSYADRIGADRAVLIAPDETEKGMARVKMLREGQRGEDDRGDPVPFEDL
UniProt P9WNZ1, whole entry: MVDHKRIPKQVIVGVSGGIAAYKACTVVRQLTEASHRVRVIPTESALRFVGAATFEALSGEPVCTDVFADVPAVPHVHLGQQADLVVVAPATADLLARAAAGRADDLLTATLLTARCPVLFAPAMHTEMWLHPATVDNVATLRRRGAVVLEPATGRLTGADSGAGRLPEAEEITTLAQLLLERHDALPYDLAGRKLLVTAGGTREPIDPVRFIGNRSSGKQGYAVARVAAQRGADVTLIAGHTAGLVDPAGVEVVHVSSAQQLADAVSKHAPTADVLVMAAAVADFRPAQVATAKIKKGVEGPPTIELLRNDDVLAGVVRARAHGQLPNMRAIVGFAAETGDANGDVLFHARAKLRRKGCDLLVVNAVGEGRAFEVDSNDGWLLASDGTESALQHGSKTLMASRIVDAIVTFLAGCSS
UniProt P9WFT3, whole entry: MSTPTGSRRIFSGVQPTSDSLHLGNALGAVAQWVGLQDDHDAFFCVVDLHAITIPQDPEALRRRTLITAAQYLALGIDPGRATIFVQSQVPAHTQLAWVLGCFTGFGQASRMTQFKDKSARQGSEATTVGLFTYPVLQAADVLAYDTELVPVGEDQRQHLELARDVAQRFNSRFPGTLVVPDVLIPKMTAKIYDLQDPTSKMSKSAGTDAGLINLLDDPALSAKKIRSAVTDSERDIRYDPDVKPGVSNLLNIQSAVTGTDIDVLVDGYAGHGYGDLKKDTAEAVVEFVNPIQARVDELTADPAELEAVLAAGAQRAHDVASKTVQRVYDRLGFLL

Data taken from ChEMBL document CHEMBL3988442, “University of Dundee, Small-Polar-MMV Screening Library” (2021).

LiHisRS: 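Enzyme assay of histidyl-tRNA synthetase; the read-out is not stated. Target: Histidine-tRNA ligase, Leishmania infantum (UniProt A4I591). Compounds at 30 µM. Higher reads as stronger inhibition (inferred: compounds with an IC50 in retests scored well above the rest). The assay is labelled LdHisRS but filed under L. infantum. Size under these conditions: about 69,000 compounds, about 410 of them at 50% or above in at least one test.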
CoaBC: 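Coenzyme A biosynthesis protein CoaBC, Mycobacterium tuberculosis (UniProt P9WNZ1). Enzyme assay of CoaBC with a phosphate dye (Biomol Green) read at 650 nm. Concentration: 30 µM. Direction is inferred from only a few compounds that gave an IC50; most scored high, so higher reads as stronger inhibition. Most strong results did not repeat in a second test. Size under these conditions: about 67,000 compounds, about 40 of them at 50% or above in at least one test.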
MtTrpRS: 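Tryptophan-tRNA ligase, Mycobacterium tuberculosis (UniProt P9WFT3). Enzyme assay of tryptophanyl-tRNA synthetase; the read-out is not stated. Compounds at 10 µM. Higher most likely means stronger inhibition; the record gives no direction and few retests gave an IC50. Size under these conditions: about 65,000 compounds, about 64 of them at 50% or above in at least one test.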

Results are given as percent effect. The record does not define 0% and 100%; most values in the screen are far below 50% and negative numbers occur (in some assays of this library far below -100). The compounds are a random part of those screened. Two or more numbers in one place are separate tests of the same structure; such repeats can differ widely. A dash means the value is not listed here; it may have been measured.

| # | structure | LiHisRS | CoaBC | MtTrpRS |
|---|---|---|---|---|
| 1 | `O=C1OCCC1N1CCN(c2cnccn2)CC1` (stereo not shown) | 20.55 | 3.846 | -6.614 |
| 2 | `Cc1nc(S(=O)(=O)NCCC(=O)NCc2ccsc2)cn1C` | 14.91 | 4.519 | 3.008 |
| 3 | `Cc1cc2n(n1)CC(CNCc1ccc(N3CCOCC3)nc1)CN2` (stereo not shown) | 17.86 | 16.35 | -7.219 |
| 4 | `Cc1cc(C)n(C2CCN(c3ncnc4sc5c(c34)CCNC5)C2)n1` (stereo not shown) | 18.68 | -1.179 | 2.156 |
| 5 | `Cc1cc(O)cc(C2CCCN2C(=O)c2ccncc2)n1` (stereo not shown) | 7.092 | -18.53 | -4.052 |
| 6 | `O=C(Cc1cccc(Cl)c1)N[C@@H]1CCNC[C@H]1O` | 15.09 | 2.203 | 1.844 |
| 7 | `CN(C)C(=O)[C@H]1C[C@@H]2CCN(C3CCOCC3)C[C@H]2O1` | 3.774 | 3.426 | -4.722 |
| 8 | `O=C1NCCN1C1CCCN(Cc2coc(-c3ccc(F)cc3)n2)C1` (stereo not shown) | 24.62 | 7.42 | -4.956 |
| 9 | `CS(=O)(=O)CCn1ccc(NC(=O)Cc2cccc(Cl)c2)n1` | 15.29 | 2.792 | 2.001 |
| 10 | `CCc1nsc(N2CCN(CC(=O)Nc3c(C)n[nH]c3C)CC2)n1` | 6.667 | 0 | -3.565 |
| 11 | `CCCc1c(C(=O)NC2CCCC2)nnn1-c1ccc(OC)cc1` | 8.571 | -0.1309 | -4.083 |
| 12 | `Cn1cc(C(C)(O)CNc2ccc(Cl)c(C#N)n2)cn1` (stereo not shown) | 9.375 | 2.232 | -6.708 |
| 13 | `O=C(c1cccnc1)N1Cc2ccccc2OCC1Cn1ccnc1` (stereo not shown) | 11.43 | -8.738 | -5.144 |
| 14 | `COc1ccc(-c2nccc(C3CCCN3C)n2)cc1` (stereo not shown) | 22.54 | 15.44 | -4.28 |
| 15 | `CCC(NC(=O)Nc1cc(F)c(OC)c(F)c1)c1noc(C)n1` (stereo not shown) | 28.57 | - | 0.7224 |
| 16 | `COc1c(Br)c(C(=O)NC2CCCCC2)nn1C` | 17.5 | 2.658 | 0.2712 |
| 17 | `Cc1nnc(CN2CCCC2c2ccc(Cl)c(Cl)c2)o1` (stereo not shown) | 16.67 | 1.72 | 0.2241 |
| 18 | `CC(C)c1nc(C2CCCN(c3nccc(N4CCCC4)n3)C2)no1` (stereo not shown) | 19.44 | 8.73 | -2.673 |
| 19 | `O=C1COC2(CCN(CC3CC3)CC2)CN1c1ccsc1` | 2 | 0.25 | -2.033 |
| 20 | `Cc1csc(C(C)(C)NCc2ncc(-c3ccc(F)cc3)o2)n1` | 12.86 | 0.6148 | -2.347 |
| 21 | `Cc1ncsc1CNC(=O)N(CCCO)C1CCc2ccccc21` (stereo not shown) | 8.929 | 5.682 | -2.336 |
| 22 | `O=C(CN1CCOC(Cn2cccn2)C1)Nc1nncs1` (stereo not shown) | -8 | 10 | 2.267 |
| 23 | `CC[C@@]1(O)CCN(C(=O)CCNC(=O)c2ccc(F)cc2)C[C@H]1O` | 0.8333 | -1.615 | -2.46 |
| 24 | `CN(CCCc1cc(-c2ccc(F)cc2)n[nH]1)C(=O)CCn1cncn1` | 1.01 | -0.2415 | -1.273 |
| 25 | `Cc1cc(C)n(CCNCc2cc(-c3ccc(Cl)cc3)c[nH]c2=O)n1` | 12.08 | 7.078 | -3.394 |
| 26 | `O=c1[nH]nc2c(S(=O)(=O)N3CCCC3)cccn12` | 19.57 | 0.7264 | -0.6958 |
| 27 | `COc1cccc(C(=O)NC(CC(=O)O)c2cccs2)c1OC` (stereo not shown) | 6.087 | 5.471 | -1.661 |
| 28 | `O=S1(=O)C[C@@H]2[C@H](C1)N(Cc1cc(Cl)cc(Cl)c1)CCN2CC1CC1` | 20.39 | -3.571 | 0.8881 |
| 29 | `Cc1cccc(OCCN2CCCC(c3cc(C(N)=O)[nH]n3)C2)c1` (stereo not shown) | 1.724 | 4.439 | -14.24 |
| 30 | `O=C(NCc1ccncc1)c1ccc(Cl)cc1F` | 13.21 | 3.579 | 1.484 |
| 31 | `Cc1nc(C2CCCN(C(=O)c3cc4c(s3)CCCC4)C2)no1` (stereo not shown) | 9.091 | 1.531 | -6.316 |
| 32 | `Cc1nc(CCNC(=O)NCc2ccc(N(C)C)nc2)cs1` | 42.86 | 0.5931 | -0.8607 |
| 33 | `COc1cccc2c1ccn2CCNC(C)=O` | 13.16 | 1.515 | 1.05 |
| 34 | `CC(C)N(CCNC(=O)c1[nH]nc2ccc(I)cc12)C(C)C` | 15.38 | -2.8 | -5.277 |
| 35 | `Cc1nn(-c2ccc(C(=O)O)cc2)c2c1C(C(C)C)SCC(=O)N2` (stereo not shown) | 10.42 | 7.135 | -3.288 |
| 36 | `N#CC1(C(=O)N2C[C@H]3CC[C@@H]2CN(Cc2ccncc2)C3)CCOCC1` | 13.33 | 6.083 | 4.72 |
| 37 | `CCn1cc(CN2CCCN(C(=O)CCN3CCCC3=O)CC2)cn1` | 10.43 | 1.935 | -4.674 |
| 38 | `COCCC(=O)N(C)Cc1nc(C(F)(F)F)cs1` | -7.447 | 2.02 | -2.323 |
| 39 | `CO[C@H]1CCN(S(=O)(=O)c2cn(C)cn2)[C@H]1Cc1cnn(C)c1` | 5.66 | 0.3807 | -3.463 |
| 40 | `CCSc1ncc(CN2CC[C@@](O)(COC)C(C)(C)C2)cn1` | 27.71 | 4.43 | 0 |
| 41 | `O=C(CCCNc1ncccn1)Nc1cc(C(F)(F)F)c[nH]c1=O` | 7.339 | 4.857 | -4.451 |
| 42 | `Cc1c[nH]c(C2CCCN(Cc3cccc(C(=O)O)c3)C2)n1` (stereo not shown) | 12.86 | -3.641 | -2.467 |
| 43 | `CC1CCc2nc(O)c(C(=O)NCc3ccncc3)cc2C1` (stereo not shown) | 3.333 | -8.779 | 20.29 |
| 44 | `CO[C@@H]1CCN(c2ncc(F)cn2)[C@H]1Cc1cnn(C)c1` | 19.27 | 5.176 | -1.99 |
| 45 | `Cc1ncsc1CCCn1ccnc1-c1cc2n(n1)CCCNC2` | 17.54 | -32.03 | -4.499 |
| 46 | `Cc1ccc(S(=O)(=O)N2CCOc3ccccc32)cc1C(=O)O` | 6.383 | -1.813 | 0.2227 |
| 47 | `Cc1nc(CC(=O)N2CCc3nc(-c4cnccn4)nc(O)c3C2)cs1` | 17.71 | 2.941 | - |
| 48 | `Cc1nc2c(c(=O)n1C)CN(C(=O)C1CCCN(C3CCCC3)C1)C2` (stereo not shown) | 15.62 | -12.8 | -0.7498 |
| 49 | `Cc1ncoc1C(=O)N1C[C@@H]2CN(CC3CC3)CCO[C@@H]2C1` | 10.92 | -3.415 | -3.3 |
| 50 | `CS(=O)(=O)N1CCC(Oc2ccc(C(=O)N3CCSCC3)cc2Cl)CC1` | 8.654 | 7.595 | -1.896 |
| 51 | `Cc1ccc2nc(CN3CCN(C4CCCC4)C(=O)C3)cc(O)c2c1` | 37.14 | 12.31 | 1.343 |
| 52 | `NC(=O)c1cc(C2CCCN(CCOc3ccc(F)cc3)C2)n[nH]1` (stereo not shown) | 10.19 | 0.7895 | -0.1337 |
| 53 | `COc1ccccc1OCC(=O)n1nc(C)c(C)c1C` | 13.56 | 1.129 | -0.552 |
| 54 | `COc1ccc(Br)cc1CC(=O)Nc1cc(C)n[nH]1` | 0 | 3.423 | -2.428 |
| 55 | `Cc1cc(NC(=O)c2ccc(Br)cc2F)n(C)n1` | -2.083 | -1.339 | 2.993 |
| 56 | `COc1ccc(CN2CCn3cc(CNC(=O)CC4CC4)nc3C2)cc1` | 14.71 | 3.807 | -6.667 |
| 57 | `Cc1cc2n(n1)CCN(c1nc(N(C)C)nc3c1CCNC3)C2` | 36.73 | 9.185 | 11.96 |
| 58 | `O=C(NCCOc1ccccc1)C1NCCc2[nH]cnc21` (stereo not shown) | 12.12 | 6.653 | -3.431 |
| 59 | `Cc1ccc(-c2cc(C(=O)O)sn2)cc1` | 5.495 | -8.962 | -18.01 |
| 60 | `CCC(=O)N(C)CC(=O)Nc1ccc(Br)cn1` | 9.459 | 1.695 | -0.4223 |
| 61 | `COc1cc2nc(C)n(CC(=O)NCCO)c(=O)c2cc1OC` | 15.38 | 1.272 | -3.072 |
| 62 | `COc1ccc(CC(=O)NCCNS(=O)(=O)c2ccc(C)cc2)cc1` | 15.96 | 10.82 | 1.119 |
| 63 | `Cc1ccc(N2CCC(NC(C)c3ccc(C)o3)CC2)nc1` (stereo not shown) | 5.714 | -1.08 | -1.847 |
| 64 | `Cc1cc2n(n1)CC(CNCCc1cnn(C)c1)CN2` (stereo not shown) | 15.79 | -28.63 | 21.19 |
| 65 | `Cn1cnc2c1CCN(Cc1csc(-c3ccco3)n1)C2` | 17.59 | -0.2632 | 10.7 |
| 66 | `Cc1ncccc1CNC1CCCN(Cc2noc(C3CC3)n2)C1` (stereo not shown) | 18.18 | 7.398 | -6.553 |
| 67 | `O=C(c1c[nH]cn1)N1CCC(F)(F)C2(CCN(c3ccccn3)C2)C1` (stereo not shown) | 15.04 | 4 | -1.036 |
| 68 | `Cn1nc(C2CCCN(Cc3cccs3)C2)c2nccnc21` (stereo not shown) | 5.208 | 2.206 | - |
| 69 | `Cc1nn(C)cc1Cn1cc(Cl)c(N)n1` | 14.71 | -0.8147 | -0.09911 |
| 70 | `c1csc(C2(NCc3csc(C4CC4)n3)CCCC2)n1` | 51.61 | 41.41 & 4.639 | 6.417 |
| 71 | `Clc1ccc(CN2CCCCC2Cn2cncn2)c2ncccc12` (stereo not shown) | 45.87 | 13.57 | 0.9676 |

Once more, the final 8:

| structure | LiHisRS | CoaBC | MtTrpRS |
|---|---|---|---|
| `Cc1cc2n(n1)CC(CNCCc1cnn(C)c1)CN2` (stereo not shown) | 15.79 | -28.63 | 21.19 |
| `Cn1cnc2c1CCN(Cc1csc(-c3ccco3)n1)C2` | 17.59 | -0.2632 | 10.7 |
| `Cc1ncccc1CNC1CCCN(Cc2noc(C3CC3)n2)C1` (stereo not shown) | 18.18 | 7.398 | -6.553 |
| `O=C(c1c[nH]cn1)N1CCC(F)(F)C2(CCN(c3ccccn3)C2)C1` (stereo not shown) | 15.04 | 4 | -1.036 |
| `Cn1nc(C2CCCN(Cc3cccs3)C2)c2nccnc21` (stereo not shown) | 5.208 | 2.206 | - |
| `Cc1nn(C)cc1Cn1cc(Cl)c(N)n1` | 14.71 | -0.8147 | -0.09911 |
| `c1csc(C2(NCc3csc(C4CC4)n3)CCCC2)n1` | 51.61 | 41.41 & 4.639 | 6.417 |
| `Clc1ccc(CN2CCCCC2Cn2cncn2)c2ncccc12` (stereo not shown) | 45.87 | 13.57 | 0.9676 |